In US20090093393A1:
Results are given in words; binding and its absence hold for the method and conditions named. Some entries that bind do so weakly or less than the wild type.

The chains behind the UniProt entries cited, without tags or fusion partners. Where a name states a change or a piece, a line headed by the entry shows the natural chain unless it says otherwise. A line that says so, or that is headed by a name, gives the form on record, which may keep a tag or linker.
recombinant human VEGF (Biosource International) (P15692, form named): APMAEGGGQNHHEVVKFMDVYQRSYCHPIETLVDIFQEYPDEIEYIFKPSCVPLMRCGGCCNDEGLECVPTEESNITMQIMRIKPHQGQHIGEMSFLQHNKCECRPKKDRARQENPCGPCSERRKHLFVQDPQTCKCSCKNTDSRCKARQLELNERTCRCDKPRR

target: recombinant human VEGF (Biosource International) (human) (UniProt P15692); test: conventional phage biopanning on VEGF, 3 rounds, acid elution

Which binding does the source give for CYNLYGWTC [phage-peptide clone BP 81, …] here?
The binding was “binds”.

Which binding does the source give for CNLWPHFWC [phage-peptide clone BP 83, …] here?
The binding was “binds”.

For CSLWPAFWC [phage-peptide clone BP 84, …], which binding is on record?
Its binding is “binds”.

For CSLWPHFWC [phage-peptide clone BP 85, …], which binding is on record?
Its binding is “binds”.

CAPWNSHIC [phage-peptide clone BP 86, …] was tested. Which binding did it give?
Its binding is “binds”.

CAPWNLHIC [phage-peptide clone BP 87, …] was tested. Which binding did it give?
Its binding is “binds”.

Which binding does the source give for CLPSWHLRC [phage-peptide clone BP 96, …] here?
Its binding is “binds”.

With CPTILEWYC [phage-peptide clone BP 97, …] as the binder, how does the binding read?
Its binding is “binds”.

For CTLYPQFWC [phage-peptide clone BP 02, …], which binding is on record?
The binding was “binds”.

CHLAPSAVC [phage-peptide clone BP 04, …] was tested. Which binding did it give?
The binding was “binds”.

target: recombinant human VEGF (Biosource International) (human) (UniProt P15692); test: phage display selection, 2 rounds, on VEGF-coated polystyrene beads after deselection on whole human blood; PCR of target-bound phage

How did the binding turn out when CSKHSQITC [phage-peptide clone V-1, …] was run?
Its binding is “binds”.

CKTNPSGSC [phage-peptide clone V-2, …] was tested. Which binding did it give?
The binding was “binds”.

With CRPTGHSLC [phage-peptide clone V-3, …] as the binder, how does the binding read?
Its binding is “binds”.

With CKHSAKAEC [phage-peptide clone V-4, …] as the binder, how does the binding read?
The binding was “binds”.

Which binding does the source give for CKPSSASSC [phage-peptide clone V-5, …] here?
Its binding is “binds”.

With CPVTKRVHC [phage-peptide clone V-6, …] as the binder, how does the binding read?
Its binding is “binds”.

CTLHWWVTC [phage-peptide clone V-7, …] was tested. Which binding did it give?
The binding was “binds”.

CPYKASFYC [phage-peptide clone V-8, …] was tested. Which binding did it give?
The binding was “binds”.

Which binding does the source give for CPLRTSHTC [phage-peptide clone V-9, …] here?
Its binding is “binds”.

Which binding does the source give for CEATPRDTC [phage-peptide clone V-10, …] here?
Its binding is “binds”.

How did the binding turn out when CNPLHTLSC [phage-peptide clone V-11, …] was run?
Its binding is “binds”.

How did the binding turn out when CKHERIWSC [phage-peptide clone V-12, …] was run?
Its binding is “binds”.

Which binding does the source give for CATNPPPMC [phage-peptide clone V-13, …] here?
The binding was “binds”.

CSTTSPNMC [phage-peptide clone V-14, …] was tested. Which binding did it give?
The binding was “binds”.

Which binding does the source give for CADRSFRYC [phage-peptide clone V-15, …] here?
The binding was “binds”.

With CPKADSKQC [phage-peptide clone V-16, …] as the binder, how does the binding read?
The binding was “binds”.

How did the binding turn out when CPNQSHLHC [phage-peptide clone V-17, …] was run?
The binding was “binds”.

CSGSETWMC [phage-peptide clone V-18, …] was tested. Which binding did it give?
The binding was “binds”.

How did the binding turn out when CALSAPYSC [phage-peptide clone V-19, …] was run?
Its binding is “binds”.

How did the binding turn out when CKMPTSKVC [phage-peptide clone V-20, …] was run?
Its binding is “binds”.

For CITPKRPYC [phage-peptide clone V-21, …], which binding is on record?
The binding was “binds”.

How did the binding turn out when CKWIVSETC [phage-peptide clone V-22, …] was run?
The binding was “binds”.

CPNANAPSC [phage-peptide clone V-23, …] was tested. Which binding did it give?
Its binding is “binds”.

How did the binding turn out when CNVQSLPLC [phage-peptide clone V-24, …] was run?
Its binding is “binds”.
